Reference: PubChem BioAssay AID743121 (NCATS, 2013)

Purpose: 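Genes whose silencing strengthens cell killing by camptothecin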 (primary screen)
Cell system: MDA-MB-231 cells, a human breast cancer line
Reagents: single siRNA against human genes, 20 nM siRNA (0.8 pmol per well)
Time to read-out: 120 h (drug added 48 h after transfection, read 72 h later)
Challenge: camptothecin 20 nM (about EC30) for 72 h; vehicle 0.1% DMSO in parallel plates
Detection: 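Cell viability by ATP luminescence (CellTiter-Glo) as % of non-targeting siRNA wells, and the log2 ratio of viability without drug over viability with camptothecin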
Direction: log2 vehicle/camptothecin viability: higher = stronger sensitisation to camptothecin; viability with camptothecin: higher = more viable cells
Active means: 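Active genes have an RSA gene-level p-value below 0.001, computed from the ratios of their separate siRNAs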
The whole screen tested about 26,000 reagents; shown is a part drawn at random. Over the whole deposit, 167 (0.63%) are marked active. 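Calls are per gene from RSA p-values that are not deposited; an individual active-marked siRNA can sensitise only weakly.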 Unmarked entries are inactive. The numbers tell different reagents against one gene apart. Further read-outs or replicates are left out here.

gene symbol	reagent	log2 vehicle/camptothecin viability	viability with camptothecin (% of control)
EPM2A (GeneID 7957)	1	-0.358	56.5
EPM2A (GeneID 7957)	2	-0.345	80.2
EPM2A (GeneID 7957)	3	0.0781	87.8
EPM2A (GeneID 7957)	4	-0.07	106
EPM2A (GeneID 7957)	5	-0.159	82.8
EPM2A (GeneID 7957)	6	-0.53	39.4
CR1 (GeneID 1378)	1	-0.245	102
CR1 (GeneID 1378)	2	-0.219	89.6
CR1 (GeneID 1378)	3	-1.14	54.4
CR1 (GeneID 1378)	4	-0.48	88.9
GSK3A (GeneID 2931)	1	-0.265	115
GSK3A (GeneID 2931)	2	-0.167	79
GSK3A (GeneID 2931)	3	-0.24	62.1
GSK3A (GeneID 2931)	4	-0.251	113
IRS1 (GeneID 3667)	1	-0.236	62.4
IRS1 (GeneID 3667)	2	-0.562	46.3
IRS1 (GeneID 3667)	3	-0.236	63.9
PAMR1 (GeneID 25891)	1	-0.245	118
PAMR1 (GeneID 25891)	2	0.286	72.7
PAMR1 (GeneID 25891)	3	-0.303	137
PAMR1 (GeneID 25891)	4	-0.219	81.6
KDM4B (GeneID 23030)	1	-0.276	102
KDM4B (GeneID 23030)	2	-0.186	93.6
KDM4B (GeneID 23030)	3	-0.215	11.5
KDM4B (GeneID 23030)	4	-0.232	101
FCRL2 (GeneID 79368)	1	-0.501	29.1
FCRL2 (GeneID 79368)	2	-0.347	81.9
FCRL2 (GeneID 79368)	3	-0.113	95.2
FCRL2 (GeneID 79368)	4	-0.0874	86.8
EPHA7 (GeneID 2045)	1	-0.312	76
EPHA7 (GeneID 2045)	2	-0.0613	70.2
EPHA7 (GeneID 2045)	3	-0.276	20.3
IL17B (GeneID 27190)	1	-0.421	89.5
IL17B (GeneID 27190)	2	-0.461	14
IL17B (GeneID 27190)	3	-0.237	102
IL17B (GeneID 27190)	4	0.109	33.8
RHOJ (GeneID 57381)	1	0.385	73.9
RHOJ (GeneID 57381)	2	-0.417	66.4
RHOJ (GeneID 57381)	3	0.0596	91.1
RHOJ (GeneID 57381)	4	-0.175	100
CD180 (GeneID 4064)	1	-0.153	84.7
CD180 (GeneID 4064)	2	-0.117	97.6
CD180 (GeneID 4064)	3	0.0588	101
HSD17B8 (GeneID 7923)	1	0.0911	83.6
HSD17B8 (GeneID 7923)	2	-0.0514	98.2
HSD17B8 (GeneID 7923)	3	-0.277	42.8
HSD17B8 (GeneID 7923)	4	-0.138	65.7

Next part; the last 10 above are carried over.
gene symbol	reagent	log2 vehicle/camptothecin viability	viability with camptothecin (% of control)
RHOJ (GeneID 57381)	2	-0.417	66.4
RHOJ (GeneID 57381)	3	0.0596	91.1
RHOJ (GeneID 57381)	4	-0.175	100
CD180 (GeneID 4064)	1	-0.153	84.7
CD180 (GeneID 4064)	2	-0.117	97.6
CD180 (GeneID 4064)	3	0.0588	101
HSD17B8 (GeneID 7923)	1	0.0911	83.6
HSD17B8 (GeneID 7923)	2	-0.0514	98.2
HSD17B8 (GeneID 7923)	3	-0.277	42.8
HSD17B8 (GeneID 7923)	4	-0.138	65.7
CSF3R (GeneID 1441)	1	0.194	76.6
CSF3R (GeneID 1441)	2	-0.0367	59.3
CSF3R (GeneID 1441)	3	1.56	18.2
CSF3R (GeneID 1441)	4	-0.151	109
UCK1 (GeneID 83549)	1	-0.306	24
UCK1 (GeneID 83549)	2	2	6.61
UCK1 (GeneID 83549)	3	0.181	34.7
CKMT1B (GeneID 1159)	1	-0.0779	95.1
CKMT1B (GeneID 1159)	2	0.19	57.5
CKMT1B (GeneID 1159)	3	-0.171	99.1
CKMT1B (GeneID 1159)	4	-0.504	108
CIDEB (GeneID 27141)	1	-0.0665	90.2
CIDEB (GeneID 27141)	2	-0.193	85.7
CIDEB (GeneID 27141)	3	-1.22	5.15
CIDEB (GeneID 27141)	4	0.214	75.8
PROKR2 (GeneID 128674)	1	-0.139	115
PROKR2 (GeneID 128674)	2	0.664	38.8
PROKR2 (GeneID 128674)	3	-0.109	125
PROKR2 (GeneID 128674)	4	0.183	44.3
CERS6 (GeneID 253782)	1	-0.289	75.1
CERS6 (GeneID 253782)	2	-0.124	87.1
CERS6 (GeneID 253782)	3	0.716	38.8
RAB8A (GeneID 4218)	1	-0.678	128
RAB8A (GeneID 4218)	2	0.128	57.8
RAB8A (GeneID 4218)	3	0.143	78.8
RAB8A (GeneID 4218)	4	-0.137	91.7
HRAS (GeneID 3265)	1	-0.188	59.6
HRAS (GeneID 3265)	2	0.0431	88.8
HRAS (GeneID 3265)	3	0.0738	57.8
HRAS (GeneID 3265)	4	-0.318	34.2
IL18R1 (GeneID 8809)	1	-0.34	105
IL18R1 (GeneID 8809)	2	-0.0436	98
IL18R1 (GeneID 8809)	3	-0.0711	61.3
IL18R1 (GeneID 8809)	4	0.12	98.6
PAQR6 (GeneID 79957)	1	-0.00769	100
PAQR6 (GeneID 79957)	2	0.336	54.3
PAQR6 (GeneID 79957)	3	-0.683	26.9
PAQR6 (GeneID 79957)	4	-0.332	97.5
UBAC2 (GeneID 337867)	1	0.538	30.5
UBAC2 (GeneID 337867)	2	-0.00233	76.3
UBAC2 (GeneID 337867)	3	-0.476	91.1
UBAC2 (GeneID 337867)	4	0.215	72.7
